# The other results are listed elsewhere or left out.
# System: phosphomevalonate kinase (Streptococcus pneumoniae D39)
# Assay: phosphomevalonate kinase enzyme inhibition – biochemical, mevalonate pathway, pilot trial included, primary screen (AID 539);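 also: 0% = full reaction with DMSO carrier and 100% = background rate without enzyme reaction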
# Details: purified PMK, PK/LDH-coupled NADH absorbance 340 nm; measured here: pilot screen replicates; at 10 µM; stronger effect = higher value
row,Compound,inhibition [%]
1,Fc1ccccc1NC1CCN(Cc2ccccc2)CC1,0
